Source: article PMC10163288
This is one part of the list.

B1: il2ra_site1_2b5i_sap_16_mot_2cbe48e66a1f39b3fed734b245ab0a04_0001_000000015_0001_17_31_H_._HHH_b2_01962_af2_0001_0000200007_0000001_0_0001_af2pred_dldesign_0_af … (protein)
chain: SSSSSDPVAEVEALIERARALHAAGRRREALAALDEAYKLADALNDEELADRIFDLAKELSSSSS
B2: il2ra_site2_2erj_normal_mot_HHH_b2_01204_af2_000000056_0001_19_34_H_._HHH_b2_07712_0001_0000100005_0000001_0 (protein)
chain: SSSSSSDEERVEELLERAKEIEDLREAYKLLVEALRIASESNNDELQELIAEVFEELASSSSSSS
B3: il2ra_site1_2b5i_normal_mot_9ebc464cd7f6471d5ebf9a8082ac34f1_0001_af2_000000289_0001_54_65_H_._HHH_b2_05733_0001_0000300009_0000001_0_af2pred_dldesign_0_af2pred (protein)
chain: SSSSAEKGRRARELAEAAEEAWKKGDKEELEKLLEELRKLAEETKDKFLKLLVEQIEAELSSSSS
B4: il2ra_site1_1z92_sap_21_mot_HHH_b2_04969_af2_000000243_0001_39_51_H_._d6c57d4070daa34a689ce99642eedc3a_0001_af2_0001_0000200006_0000001_0_0001 (protein)
chain: SSSSSSEEELVEQVLELFHEAARIQDRREVRRLLEEALELAREANNPSLEKDVEKYLEFLSSSSS
B5: il2ra_site1_3nfp_normal_mot_HHH_b2_06121_000000007_0001_22_38_H_._HHH_b2_01497_af2_0001_0000100013_0000001_0_af2pred_0001_af2pred_1_swapped (protein)
chain: SSSSSEVEEEVQKLLEEAKELDEKGNSEEARKVAERAFELIRETGDDELFRLLMEWVKKNSSSSS
B6: il2ra_site2_2erj_sap_19_mot_HHH_b1_05749_af2_000000010_0001_23_39_H_._HHH_b2_05247_0001_0000300017_0000001_0_0001 (protein)
chain: SSSDEELRELYELAEEAIRLIAENDPEEAKKVVEELEELAREVDSKNAEEIAEALEELVRRLKSS
B7: il2ra_site1_2b5i_normal_mot_HHH_b2_06952_000000244_0001_39_53_H_._HHH_b2_05445_0001_0000100001_0000001_0_af2pred_dldesign_0_af2pred (protein)
chain: SSSSNVELRKEVHELLLKLNDLSEEERKKALEKAEELAKEAKNPGLLKRVETYRKLLESLSSSSS
B8: il2ra_site1_2b5i_sap_11_mot_HHH_b2_01981_af2_000000043_0001_1_18_H_._HHH_b1_00216_0002_0000800034_0000001_1_0001_af2pred_dldesign_0_af2pred (protein)
chain: SSSSSPEEEAAFEAALAAIRALAKEDRRAALLALNELYKEVAEKGLEELEDRLYELAKELSSSSS
B9: il2ra_site1_2b5i_normal_mot_22370d59370c406a0c205a431f537cfa_0001_af2_000000141_0001_1_31_H_._HHH_b2_04268_af2_0001_0000700031_0000001_0 (protein)
chain: SSSSSREEAHKVSEVIWRLIEELGLSEEDEHILTRLAVRLLWRGVSEEEIEELLEEEAKRLSSSS
B10: il2ra_site1_3nfp_normal_mot_HHH_b1_00233_000000159_0001_1_17_H_._HHH_b1_02182_0001_0000300006_0000001_0 (protein)
chain: SSSSTEISKIVLRLAEEFNLSHEAAEKLIRLAARLQLRGVSEEEIEELLEELAKELREELSSSSS
B11: il2ra_site2_3nfp_sap_20_mot_HHH_b2_07840_000000026_0001_18_34_H_._HHH_b2_00723_0001_0000100001_0000001_0_0001_af2pred_0001_af2pred (protein)
chain: SSSSSEEVEELIEEVKELLKKGDVEEAERVLQKAALLAREDGDEKLFNLLHELEEEVKRLKSSSS
B12: il2ra_site2_3nfp_sap_15_mot_HHH_b2_06150_000000230_0001_39_53_H_._HHH_b2_00543_0001_0000100010_0000001_0_0001_af2pred_0001_af2pred_1 (protein)
chain: SSSSDEEEREELEELLEEAKKIEDEEEVREILSRASELARELNDPELAQLVAEVLAELADSSSSS
B13: il2ra_site2_3nfp_normal_mot_HHH_b1_00660_af2_000000090_0001_40_57_H_._HHH_b1_00954_0001_0000100002_0000001_0 (protein)
chain: SSSSDLEERLRELLEELEELVEEGDKERFREVAQEVIELVYENNDFEAFALLQELRALIASSSSS
B14: il2ra_site1_3nfp_normal_mot_HHH_b2_02053_000000240_0001_1_20_H_._8b3018496bece20695a4731cc719293d_0001_1_af2_0001_0000600031_0000001_0_af2pred_0001_af2pred_swap … (protein)
chain: GPRAAKILVRRALEENSPRALRRILEDLERNLGDPEKAERLLSELIAEVLKVPPEEAEKIVEEVK
B15: il2ra_site2_3nfp_sap_22_mot_HHH_b1_04312_000000268_0001_22_39_H_._HHH_b1_01863_af2_0001_0000200011_0000001_0_0001_af2pred_0001_1_af2pred_swapped (protein)
chain: SSSSSSEVEEEIEELIERAKRTPDPREAFLLLLLALRLAEELNDPELLREVRELLRELRSSSSSS
B16: il2ra_site1_1z92_sap_16_mot_HHH_b1_05516_af2_000000202_0001_21_38_H_._HHH_b2_03955_0001_0000100001_0000001_0_0001_af2pred_0001_af2pred_1 (protein)
chain: SSSSSRLEKSLRIAVKAMVESANLSEEQQEKLEEVVEELVEEGVDFHEALKILDEVALKLSSSSS
B17: il2ra_site1_2b5i_sap_10_mot_HHH_b1_04650_000000225_0001_43_56_H_._09ac4752b5ccafd30a612070d7dcd4c0_0001_af2_0001_0000600023_0000001_0_0001_af2pred_0001_af2pred (protein)
chain: SSSSDELYHEITELYRKASEAFRNGNPEEAEEILREALRLAEEAGDEVARRDLERLIEILSSSSS
B18: il2ra_site1_3nfp_sap_15_mot_HHH_b1_02721_af2_000000134_0001_39_56_H_._HHH_b2_07721_0001_0000100002_0000001_0_0001 (protein)
chain: SSSSSEAEELAREAREELEEERRRGDDEKFRELAHRLAEELDKLGDPHAVMLLMKKFARASSSSS
B19: il2ra_site1_3nfp_normal_mot_HHH_b2_02292_000000251_0001_1_21_H_._394de4c172568015e4b749d6fe9a249d_0001_0001_0000100003_0000001_0_af2pred_0001_af2pred_swapped (protein)
chain: SAERILEEALENRDPELLEHLLKALREVAKRDPLARELAEKMVRLLLEKDPDNELLEEVLEEVRK
B20: il2ra_site1_2b5i_normal_mot_ems_3hM_3687_af2_000000248_0001_45_64_H_._HHH_b2_03491_af2_0001_0000400021_0000001_0_af2pred_dldesign_0_af2pred (protein)
chain: SSSSSSEAEKIAEDAIAEARKLPDRRAALALLEAAHKEVSALGDEEAADKLERFARELLRSSSSS
B21: il2ra_site2_2erj_normal_mot_c2bf78bdce995293a161f7082e24b401_0001_af2_000000082_0001_17_32_H_._HHH_b1_02143_0001_0000300024_0000001_0 (protein)
chain: SSSSDEELERLYELANILLHLAARNDQEEFEKIYEEAERLAEETDNPNVREILEFLEKHINSSSS
B22: il2ra_site1_2b5i_normal_mot_HHH_b1_08033_000000124_0001_1_20_H_._HHH_b2_01600_0001_0000200009_0000001_0_af2pred_dldesign_0_af2pred (protein)
chain: SSSSSPLIEEAKRRAEEAIAYAKERNNKSTIKILEYGLERLEEDKDPKIAEELKKLADRILSSSS
B23: il2ra_site1_3nfp_sap_21_mot_3ff75f044bbd266f07abdfc5542de534_0001_000000014_0001_18_33_H_._509714e85d23fb3917fd9f3451be2a65_0001_0001_0000500015_0000001_0_0001 (protein)
chain: SSSSTEELQELFHEAFELAKEGDKEEAQEVLEELIELARELGTRNVLRSAERALEMLRRGSSSSS
B24: il2ra_site1_1z92_sap_20_mot_HHH_b2_05734_000000004_0001_1_18_H_._HHH_b1_01340_0001_0000200019_0000001_0_0001 (protein)
chain: DSKAIKWLLEAAKRFGSLETDLRILIRLLAQARRVPPEEAAEILLRILEELGDPEAEEIVREIVK

molecular target: il2ra, P01589; test: yeast display titration

Apparent Kd, inactive:
B1 no binding seen, B2 no binding seen, B3 no binding seen, B4 no binding seen, B5 no binding seen, B6 no binding seen, B7 > 1.17 µM, B8 no binding seen, B9 no binding seen, B10 no binding seen, B11 no binding seen, B12 no binding seen, B13 no binding seen, B14 no binding seen, B15 no binding seen, B16 no binding seen, B17 no binding seen, B18 no binding seen, B19 no binding seen, B20 no binding seen, B21 no binding seen, B22 no binding seen, B23 no binding seen, B24 no binding seen
